Here are results for 57 compounds from PubChem BioAssay AID1487 (National Center for Advancing Translational Sciences (NCATS), 2009).

The experiment can be described thus: qHTS Assay for Modulators of Lamin A Splicing. The settings on record: HeLa LMNA splicing GFP/RFP minigene ratio, 48 h. In a few lines: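 Read-out is the ratio of GFP to DsRed2 object intensity, acquired by 488 nm laser-scanning cytometry on HeLa lamin A-EGFP minigene reporter cells. Compound incubation 48 hrs at 37 °C in Opti-MEM with 2% FBS; DMSO 0.5% final.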

Where [1] appears, read: measured here: GFP splicing reporter channel.
[2] abbreviates: measured here: RFP viability control channel.

The list shows a part of the results. Further columns of the screen follow, without active or inactive calls. Most of these compounds were active or inconclusive in the main read-out, so they are no random draw. Words in brackets tell the shape of the fitted curve; partial curves, single points and poor fits give uncertain potencies.

By AC50 is commonly meant the concentration giving half of the maximal activity seen. Turning to `O=C(c1ccc(Cl)c(Cl)c1)N1CCC(=O)N(C(COCc2ccc(Cl)cc2)Cc2ccccc2)CC1` (configuration not stated), the AC50 by setting is: under setting [1], 14.1 µM [rising, single point]; under setting [2], 31.6 µM [rising, single point].
For the compound `Cc1ccc(-c2csc(NC(=S)NC(=O)/C=C/c3ccco3)n2)cc1`, the AC50 was 5.62 µM [falling, single point] under setting [1] and 5.62 µM [falling, single point] under setting [2].
Regarding `COc1ccc(CCNC(=O)c2ccc3c(c2)ncn3-c2ccc(C(C)C)cc2)cc1OC`, the AC50 reads like this: under setting [1], 12.6 µM [falling, partial curve, poor fit]; under setting [2], 22.4 µM [falling, single point].
On to `CCN(CC)N=Nc1[nH]nc2nc(C)cc(C)c12`, for which, under setting [1], the AC50 was 10 µM [falling, partial curve, poor fit].
As to `CC(=O)Nc1ccccc1N(CC(O)Cn1c2ccccc2c2ccccc21)S(=O)(=O)c1ccc(C)cc1` (configuration not stated), the AC50 is 22.4 µM [rising, single point] under setting [1] and 25.1 µM [rising, single point] under setting [2].
Turning to `CNc1ccc(Br)cc(C(=O)/C=C/c2cccc(OC)c2OC)c1=O`, the AC50 by setting is: under setting [1], 28.2 µM [rising, single point]; under setting [2], 35.5 µM [rising, single point].
Consider `O=C(Nc1ccc2snnc2c1)N1CCN(c2ccccc2)CC1`, for which the AC50 is, setting by setting: under setting [1], 14.1 µM [rising, single point]; under setting [2], 20 µM [rising, single point].
In the case of `COc1ccc(/C(O)=C/Sc2nnc(Cc3ccccc3)o2)cc1`, the AC50 under setting [2] was 12.6 µM [rising, single point].
As to `CCc1ccc(N(CC)c2ncnc3nc[nH]c23)cc1`, under setting [2], the AC50 is 14.1 µM [rising, single point].
Turning to `COC(=O)c1sc2nc(SCc3cccc(Cl)c3)n(N)c(=O)c2c1C`, the concentration at half-maximal activity (AC50) under setting [2] was 3.16 µM [falling, full curve, poor fit].
`COc1cc(C2NC(=O)C(C#N)=C(Nc3cccc(C)c3)S2)ccc1O` (configuration not stated): the AC50 under setting [2] is 2.82 µM [falling, partial curve].
In the case of `CCC(=O)Nc1ccccc1C(=O)N1CCN(Cc2ccccc2)CC1`, the AC50 under setting [2] was 0.708 µM [falling, full curve, poor fit].
`CS(=O)(=O)Nc1cccc(-c2nc(NCc3cccs3)c3ccccc3n2)c1`: the AC50 is, setting by setting: under setting [1], 35.5 µM [falling, single point]; under setting [2], 35.5 µM [falling, single point].
Take `COC(=O)c1sc(N)c(C(=O)OC)c1COC(=O)CCNS(=O)(=O)c1ccc(C)cc1`: the AC50 is, setting by setting: under setting [1], 15.8 µM [rising, single point]; under setting [2], 14.1 µM [rising, single point].
For `Cc1cc(C(=O)CSc2nnc(-c3ccc4c(c3)OCO4)o2)c(C)n1-c1ccc(F)cc1`, the AC50 is 0.0224 µM [falling, full curve, poor fit] under setting [1] and 0.282 µM [falling, partial curve] under setting [2].
On to `CC(C)N(c1ccccc1)c1ccc(NC(=O)CCl)cc1`, for which the AC50 is 0.00447 µM [falling, full curve, poor fit] under setting [1] and 35.5 µM [falling, single point] under setting [2].
On to `CNc1ncnc2ccc(-c3cccc(OC)c3)cc12`, for which the AC50 reads like this: under setting [1], 11.2 µM [falling, partial curve]; under setting [2], 14.1 µM [falling, partial curve].
In the case of `CCN(CC)C(=O)CSc1ncnc2c1cnn2-c1ccccc1`, the concentration at half-maximal activity (AC50) under setting [2] is 7.94 µM [rising, partial curve].
`Cc1nc2ccn(Cc3cccs3)c(=O)c2cc1C(=O)N1CCN(c2ccc(F)cc2)CC1`: the AC50 runs as follows: under setting [1], 14.1 µM [falling, partial curve, poor fit]; under setting [2], 22.4 µM [falling, partial curve, poor fit].
In the case of `CCN(CC(=O)NC(C)C)C(=O)C(CCSC)NC(=O)c1ccccc1OC` (configuration not stated), under setting [1], the AC50 was 0.0891 µM [rising, full curve, poor fit].
`CC1(C)CC(=O)/C(=C\c2cccc([N+](=O)[O-])c2)C(C)(C)N1`: the AC50 under setting [2] was 15.8 µM [rising, single point].
On to `CCCSc1ncccc1C(=O)O`, for which, under setting [1], the concentration at half-maximal activity (AC50) is 0.0447 µM [rising, full curve, poor fit].
Take `Cc1cccc(OCC(=O)Nc2cc(C)c(C)cc2O)c1`: the concentration at half-maximal activity (AC50) under setting [2] was 6.31 µM [rising, single point].
The same measure, in the same setting: as for `CCCN(CCC)S(=O)(=O)c1ccc(C(=O)NNc2nc(-c3ccccc3)c3cc(Br)ccc3n2)cc1`, the figure is 11.2 µM [rising, partial curve, poor fit].
Consider `CC(=O)Nc1nc2ccccc2[nH]1`, for which the AC50 is 0.355 µM [rising, full curve, poor fit] under setting [1] and 1.12 µM [rising, partial curve] under setting [2].
In the case of `CCCCCCCCOC(=O)c1nc(Cl)c(Cl)c(N)c1Cl`, the AC50 runs as follows: under setting [1], 10 µM [rising, partial curve]; under setting [2], 8.91 µM [rising, partial curve, poor fit].
For `N#CC(c1ccc(F)cc1)c1ccc(C(=O)c2ccccc2)cc1` (configuration not stated), the half-maximal activity concentration (AC50) under setting [1] is 8.91 µM [rising, partial curve, poor fit] and the AC50 under setting [2] is 17.8 µM [rising, single point].
`CCOC(=O)c1c(/N=C/N(C)C)sc(/C=N/Nc2ccccc2)c1-c1ccc(Cl)cc1`: under setting [1], the AC50 is 17.8 µM [rising, partial curve, poor fit].
Regarding `COc1ccc2cc(N=Cc3nc(-c4ccc(C)cc4)oc3O)cnc2c1`, the AC50 under setting [1] was 4.47 µM [rising, partial curve, poor fit].
For the compound `CCOc1cc2[nH]c(=S)n(CCN3CCCCC3C)c(=O)c2cc1OCC` (configuration not stated), the AC50 under setting [2] was 1.26 µM [falling, single point].
Take `Clc1ccc(-c2nnc3cccc(Cl)n23)c(Cl)c1`: the AC50 under setting [1] was 35.5 µM [rising, single point] and the AC50 under setting [2] was 31.6 µM [rising, single point].
Turning to `COc1ccccc1NC(=O)Nc1ccc(CC#N)cc1`, under setting [1], the concentration at half-maximal activity (AC50) is 0.316 µM [falling, partial curve, poor fit].
Turning to `OC[C@@H](O)[C@@H](O)[C@H](O)[C@H](O)CO`, the concentration at half-maximal activity (AC50) under setting [1] is 35.5 µM [rising, single point] and the AC50 under setting [2] is 35.5 µM [rising, single point].
In the case of `O=C(Nc1ccc(Cc2ccncc2)cc1)C1CCC(N2C(=O)C3C4C=CC(C4)C3C2=O)CC1` (configuration not stated), the AC50 runs as follows: under setting [1], 35.5 µM [rising, single point]; under setting [2], 22.4 µM [rising, single point].
Consider `CCOC(=O)C1=C(C)OC(N)=C(C#N)C1c1ccc(C)s1` (configuration not stated), for which, under setting [1], the AC50 was 35.5 µM [rising, single point].
For the compound `O=C(NCc1ccc(F)cc1)c1ccc(CS(=O)(=O)c2ccc(Cl)cc2)o1`, the AC50 under setting [1] was 0.00631 µM [falling, full curve, poor fit].
As to `CCCCCCCCCC(=O)Nc1cccnc1`, the AC50 under setting [2] was 2.82 µM [falling, partial curve, poor fit].
As to `CC(=O)N[C@@H](Cc1ccc(O)cc1)C(=O)O`, under setting [1], the AC50 is 35.5 µM [falling, single point].
Take `COC(=O)CCCCNC(=O)Nc1ccccc1`: the AC50 under setting [2] was 22.4 µM [rising, single point].
For the compound `CCOC(=O)c1ccc(NC(=S)Nc2cc(C)cc(C)n2)cc1`, the AC50 under setting [1] is 8.91 µM [rising, partial curve, poor fit].
`Cn1cccc1CC(=O)NNC(=O)Nc1ccc(Cl)cc1`: the AC50 under setting [2] was 1.58 µM [falling, partial curve].
For `N#Cc1ccsc1NC(=O)COC(=O)c1cc2ccccc2cc1O`, the concentration at half-maximal activity (AC50) under setting [1] is 22.4 µM [rising, single point].
`COc1ccc(C(=O)N[C@H](C(=O)Nc2nc3c(s2)CCCC3)C(C)C)cc1`: the AC50 under setting [2] was 25.1 µM [rising, partial curve].
For `COc1ccc(/C=C/C(=O)OCC(=O)NCc2ccco2)cc1OC`, the AC50 under setting [2] was 11.2 µM [rising, partial curve].
On the same count and under the same terms, in the case of `CC(C)c1ccc(C(=O)N(c2ccccn2)C(C)c2ccco2)cc1` (configuration not stated) it was 35.5 µM [rising, single point].
On to `CC1(C)CCC=[N+]1[O-]`, for which the AC50 under setting [1] was 6.31 µM [falling, partial curve, poor fit].
With `COCCCNc1nc2c(c(=O)n(C)c(=O)n2C)n1Cc1cccc(OC)c1`, the AC50 under setting [2] is 17.8 µM [rising, single point].
As for `Cc1nn(-c2ccc([N+](=O)[O-])cc2)c2c1C(c1cccc(Br)c1)N1C(=N2)C(=O)Nc2ccccc21` (configuration not stated), the AC50 under setting [2] was 2.24 µM [rising, full curve].
Turning to `CCCCc1c(O)nc(SCC(=O)O)[nH]c1=O`, the concentration at half-maximal activity (AC50) under setting [2] was 35.5 µM [falling, single point].
Consider `CCOc1ccc(NC(=O)CN2C(=O)S/C(=C/c3cccn3C)C2=O)cc1`, for which, under setting [1], the AC50 is 35.5 µM [falling, partial curve, poor fit].
Same read-out and setting: as for `CCC(CC)C(=O)NC12CC3CC(CC(C3)C1)C2`, the figure is 0.1 µM [falling, full curve, poor fit].
`CC(C)CCNC(=O)NC(=O)COC(=O)/C=C/c1cc(Br)ccc1F`: under setting [2], the half-maximal activity concentration (AC50) was 0.158 µM [falling, full curve].
In the case of `COc1cccc(-c2cncnc2-n2ccnc2)c1`, the AC50 reads like this: under setting [1], 6.31 µM [rising, full curve, poor fit]; under setting [2], 12.6 µM [rising, partial curve, poor fit].
For the compound `CSc1nc(N2CCN(c3ccccc3)CC2)cc(N2CCN(c3ccccc3)CC2)n1`, the AC50 under setting [1] was 0.708 µM [falling, partial curve, poor fit].
Take `Cc1ccc(S(=O)(=O)N(C)CCCC(=O)Nc2cccc3ccccc23)cc1`: the AC50 under setting [2] is 25.1 µM [rising, single point].
With `Cn1c(Cn2nnc3ccccc32)nnc1SCC(=O)N1c2ccccc2CCc2ccccc21`, the AC50 under setting [1] is 7.08 µM [rising, full curve, poor fit].
In the case of `Cc1cc(C)c(-c2csc(NC(=O)/C=C/c3cccs3)n2)c(C)c1`, the half-maximal activity concentration (AC50) under setting [1] was 4.47 µM [rising, partial curve] and the AC50 under setting [2] was 3.55 µM [rising, partial curve].
